# No constants are given. Whether binding was seen depends on the method and setting. In cells and extracts the contact can be indirect. Some results given as binding are weak or reduced against the parent protein; the word gives no strength. Sequences can lack the tags named with a protein.
# T1: cMyc–FNIP2 (UniProt Q9P278)
# T1 sequence: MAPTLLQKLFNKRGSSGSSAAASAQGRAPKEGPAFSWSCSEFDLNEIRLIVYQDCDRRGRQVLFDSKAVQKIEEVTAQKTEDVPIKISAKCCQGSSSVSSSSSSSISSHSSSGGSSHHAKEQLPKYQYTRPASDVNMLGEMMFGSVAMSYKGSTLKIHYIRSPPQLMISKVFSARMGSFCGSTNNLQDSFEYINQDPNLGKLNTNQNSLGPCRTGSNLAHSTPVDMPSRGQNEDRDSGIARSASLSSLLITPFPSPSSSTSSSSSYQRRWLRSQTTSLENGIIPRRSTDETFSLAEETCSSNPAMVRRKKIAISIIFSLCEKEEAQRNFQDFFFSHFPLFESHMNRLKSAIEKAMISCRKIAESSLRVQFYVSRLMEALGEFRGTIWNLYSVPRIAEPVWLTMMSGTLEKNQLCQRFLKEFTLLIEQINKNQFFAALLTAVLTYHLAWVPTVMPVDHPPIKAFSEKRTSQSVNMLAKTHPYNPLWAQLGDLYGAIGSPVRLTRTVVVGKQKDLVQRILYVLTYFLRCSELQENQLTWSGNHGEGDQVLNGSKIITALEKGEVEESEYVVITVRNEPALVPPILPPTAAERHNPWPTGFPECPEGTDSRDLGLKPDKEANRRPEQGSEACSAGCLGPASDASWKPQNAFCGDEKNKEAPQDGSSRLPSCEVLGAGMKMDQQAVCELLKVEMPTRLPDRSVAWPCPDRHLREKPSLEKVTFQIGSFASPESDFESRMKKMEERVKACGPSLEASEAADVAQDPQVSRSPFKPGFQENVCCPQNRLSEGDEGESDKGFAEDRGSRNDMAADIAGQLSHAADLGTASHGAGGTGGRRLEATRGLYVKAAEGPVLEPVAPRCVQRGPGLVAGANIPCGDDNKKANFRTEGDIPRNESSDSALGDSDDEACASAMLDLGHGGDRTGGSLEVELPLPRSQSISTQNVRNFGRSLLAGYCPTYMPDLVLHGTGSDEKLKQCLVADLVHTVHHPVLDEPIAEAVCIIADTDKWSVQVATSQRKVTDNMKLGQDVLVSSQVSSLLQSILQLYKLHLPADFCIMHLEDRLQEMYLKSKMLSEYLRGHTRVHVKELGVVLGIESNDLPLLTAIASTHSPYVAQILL
# What was measured:
# [1] = target: yeast Hsp90 (yHsp90, also known as Hsp82), endogenous (S. cerevisiae (endogenous in BY4741)) (UniProt P02829); experiment: co-IP; BY4741 yeast expressing GAL1-LST4-GST grown on glucose or galactose at 30 °C for 8 h; endogenous yHsp90 immunoprecipitated, immunoblot for Lst4-GST
# cMyc–FNIP2 = target: T1, cMyc–FNIP2; experiment: co-IP; sequential IP from co-transfected HEK293: anti-cMyc agarose, elution with cMyc peptides, dialysis, then anti-HA agarose; immunoblot
# HA–FNIP1 = HA–FNIP1 (UniProt Q8TF40); experiment: as above
binding [1],binding (cMyc–FNIP2),binding (HA–FNIP1),Binder
no binding,–,–,"Lst4–GST (protein, UniProt P34239 1-828) MLGNLLRNKTSSSGFEKSSEHSDFSSVVPNVPVYCKAASTGTTKTAAGALLDTAVNVEKPSEMLSTTSPPILDHISDDLKLKLFGSRDIPYSRPIDTLQNNGGLGTDKITSINEKTYAFRILIIEEAGQMACRNNYRDIFDYTTSKISNSMEQIRPSELKEYIFGSPVRSSDLTQCDKIRTIPNSDLVLITRIFYYTHQYNRIAISLCIPRILLPVVAESWSSISSWLTQTQKMLIGFLTKNRIMQENTGNYSNNSVIKLSNIDIRTHYPKEIEIMVQTLQKRVIPGLRSMSEIPRLFLYPETFKEFVHVWFKSIFNWIEIKDGPKLGFLPLLMAMIISDYRHTIRELKTSKIVILSGNMVVANKLLFILSALLEPKYKGQITIRRENIRSDSSAVSRNKSNNNFVDKPETELSTLTSTDNLLSRTENNSNHNYNNSNVSSNSIGSPNFHSLRKGWQIPNRRNSNTSVSVSSSESLAEVIQPSSFKSGSSSLHYLSSSISSQPGSYGSWFNKRPTISQFFQPSPSLKHNESWERLQTTAGNMQRTSSSSSLQQATSRLSLTTPQQSPSISEYDEYPWMGTPGSPNVGDVSHAPPLVKNISYKFPLKNVELKRDCQRISQDDLLDEAFERICQPSLADLNSTYEIFPGNSSYADILTTDSDIDDGLMNKPLELLPKYTMYLTHFNNFFQLQACPAGQESESRITNSMKIDLLKADYTRSLLVSLRSRDIRDVALKREFTGNNNNNSNQNIYDENFVGKRKYVLKQKTRKIFSCGKIGKLSTSLENCVNFVENSIKSAMMLYDDNGIDSELRDSEALRIFSSLVHYCNAG"
–,binds,binds,"HA–FNIP1 (protein, UniProt Q8TF40 1-1166) MAPTLFQKLFSKRTGLGAPGRDARDPDCGFSWPLPEFDPSQIRLIVYQDCERRGRNVLFDSSVKRRNEDISVSKLGSDAQVKVFGKCCQLKPGGDSSSSLDSSVTSSSDIKDQCLKYQGSRCSSDANMLGEMMFGSVAMSYKGSTLKIHQIRSPPQLMLSKVFTARTGSSICGSLNTLQDSLEFINQDNNTLKADNNTVINGLLGNIGLSQFCSPRRAFSEQGPLRLIRSASFFAVHSNPMDMPGRELNEDRDSGIARSASLSSLLITPFPSPNSSLTRSCASSYQRRWRRSQTTSLENGVFPRWSIEESFNLSDESCGPNPGIVRKKKIAIGVIFSLSKDEDENNKFNEFFFSHFPLFESHMNKLKSAIEQAMKMSRRSADASQRSLAYNRIVDALNEFRTTICNLYTMPRIGEPVWLTMMSGTPEKNHLCYRFMKEFTFLMENASKNQFLPALITAVLTNHLAWVPTVMPNGQPPIKIFLEKHSSQSVDMLAKTHPYNPLWAQLGDLYGAIGSPVRLARTVVVGKRQDMVQRLLYFLTYFIRCSELQETHLLENGEDEAIVMPGTVITTTLEKGEIEESEYVLVTMHRNKSSLLFKESEEIRTPNCNCKYCSHPLLGQNVENISQQEREDIQNSSKELLGISDECQMISPSDCQEENAVDVKQYRDKLRTCFDAKLETVVCTGSVPVDKCALSESGLESTEETWQSEKLLDSDSHTGKAMRSTGMVVEKKPPDKIVPASFSCEAAQTKVTFLIGDSMSPDSDTELRSQAVVDQITRHHTKPLKEERGAIDQHQETKQTTKDQSGESDTQNMVSEEPCELPCWNHSDPESMSLFDEYFNDDSIETRTIDDVPFKTSTDSKDHCCMLEFSKILCTKNNKQNNEFCKCIETVPQDSCKTCFPQQDQRDTLSILVPHGDKESSDKKIAVGTEWDIPRNESSDSALGDSESEDTGHDMTRQVSSYYGGEQEDWAEEDEIPFPGSKLIEVSAVQPNIANFGRSLLGGYCSSYVPDFVLQGIGSDERFRQCLMSDLSHAVQHPVLDEPIAEAVCIIADMDKWTVQVASSQRRVTDNKLGKEVLVSSLVSNLLHSTLQLYKHNLSPNFCVMHLEDRLQELYFKSKMLSEYLRGQMRVHVKELGVVLGIESSDLPLLAAVASTHSPYVAQILL"

# Source: publication PMC4931344
